Values quoted from earlier work, collected in article PMC4967259 (The American journal on addictions / American Academy of …, 2016).

How the values were obtained:
[1] = system: BuChE; settings: rat brain homogenate; cited from earlier work
[2] = cited from earlier work

COc1cc2c(cc1OC)C(=O)C(CC1CCN(Cc3ccccc3)CC1)C2 (stereo not drawn) [Donepezil, donepezil]
inhibition of BuChE [1]: only weak inhibition | elimination half-life [2]: 73.5 h | protein binding [2]: highly protein bound
